Literature values in patent US20240390871A1, “Production of encapsulated nanoparticles at high volume fractions” (iCeutica Pty Ltd., priority 2009, published 2024).

Conditions: current commercial formulations

Tmax: 1 to 4 h
SMILES: COc1ccc2cc([C@H](C)C(=O)O)ccc2c1 [naproxen]
